This is one part of the list.

Amino acid sequences for entries named in this document (tags omitted).
UniProt Q0JBA9, entry or part of it: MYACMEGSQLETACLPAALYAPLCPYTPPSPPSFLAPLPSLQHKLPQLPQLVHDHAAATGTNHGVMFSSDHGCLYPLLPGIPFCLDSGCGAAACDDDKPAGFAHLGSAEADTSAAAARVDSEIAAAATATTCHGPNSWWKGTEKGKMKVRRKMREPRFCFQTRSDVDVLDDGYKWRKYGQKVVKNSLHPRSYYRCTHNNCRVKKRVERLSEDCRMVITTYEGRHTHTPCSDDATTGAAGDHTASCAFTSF

This assay concerns the target OsWRKY34 (Oryza sativa, UniProt Q0JBA9 1-250). The experiment in a line: protein-binding microarray (RPBM); PBS, 2% BSA, 51.3 ng/ul salmon testes DNA, 50 uM zinc acetate, 200 nM TF, 25 C, 1 h; high values mean tight binding. To be noted: protein: recombinant; tags: N-terminal polyhistidine and DsRed monomer fusion (pET32a); label: CyDye5-dUTP incorporated in the synthesized complementary strand; 3' TTTTT single-stranded linker to array surface; dsDNA, one strand shown. Put shortly: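 The binding signal for each feature is its fluorescence intensity in arbitrary units. An Axon 4000B scanner was used to read a custom Agilent array that had been made double-stranded with Cy5-dUTP primer extension, blocked with 2% BSA, incubated at 25 °C for 1 h with 200 nM protein in PBS, 2% BSA, salmon testes DNA and 50 µM zinc acetate, and washed. The protein was an N-terminal polyhistidine–DsRed transcription factor fusion from E. coli BL21-CodonPlus, purified on Ni–NTA.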
Take “GCGCTAAATGTCGTGTCACCATGGATAAGTCTGAGTCGACCGGAGTCACCTAGTGCAG”: the binding signal is 8770 fluorescence intensity (a.u.).

As to “GCCAGCAACCAAACACACCCTAATGCACCTTTCTCTCTATCGGAGTCACCTAGTGCAG”, the binding signal is 9470 fluorescence intensity (a.u.).

“TCAGCCATGAATCCTGCGCACGTTTTTAGAATGAAGATTTCGGAGTCACCTAGTGCAG”: the binding signal is 10300 fluorescence intensity (a.u.).

On to “GCCACCGCCACCGCCACGCTCGCGCTCCAGCTTGACCGCGCGGAGTCACCTAGTGCAG”, for which the binding signal is 9460 fluorescence intensity (a.u.).

Regarding “CGCGCCATTTCGGTTCCTGGGCCAACCGTGCCCCGTCCACCGGAGTCACCTAGTGCAG”, the binding signal is 9450 fluorescence intensity (a.u.).

With “AAACTTTCCTACACACAAACTTGCGACTTTTTCATCACATCGGAGTCACCTAGTGCAG”, the binding signal is 8180 fluorescence intensity (a.u.).

For the sequence “GCTCGCCCGTCTTTCGCTCTGCCCGCAGCCCGCCGCCGCTCGGAGTCACCTAGTGCAG”, the binding signal was 14000 fluorescence intensity (a.u.).

“AATCCATGTCTCGTCTCTATAATCTGTGTGTATATAGCTCCGGAGTCACCTAGTGCAG”: the binding signal is 10900 fluorescence intensity (a.u.).

For “TCTATATATACGTGCTACCGTTTACTATAAATAACCACATCGGAGTCACCTAGTGCAG”, the binding signal was 9340 fluorescence intensity (a.u.).

With “GTGGGAGGGAGGGCGGCGAGCTGCGCGGCGAACCTCGAGCCGGAGTCACCTAGTGCAG”, the binding signal was 8120 fluorescence intensity (a.u.).

“ACTCATCTCATCTCTGATCTCTCATCTCATCTCACCAACCCGGAGTCACCTAGTGCAG”: the binding signal was 11100 fluorescence intensity (a.u.).

Take “CAGCTATCATTAGCTGTCTAGTCACGTCCTATTTTTTTATCGGAGTCACCTAGTGCAG”: the binding signal was 8290 fluorescence intensity (a.u.).

For the sequence “AGGTCATCGCAGGGCTCCTCTCCATCGCAGCCGCTCCAGCCGGAGTCACCTAGTGCAG”, the binding signal was 8910 fluorescence intensity (a.u.).

Take “TGCTAAAATTTAACTTGGAGAGTGGGGTTGGGAGGCTATTCGGAGTCACCTAGTGCAG”: the binding signal was 9090 fluorescence intensity (a.u.).

Turning to “TGTGGCATCAAGGGGTAAAAAGGGCACGGGGAGGGTTGAGCGGAGTCACCTAGTGCAG”, the binding signal was 9710 fluorescence intensity (a.u.).

As for “GACCTATCCCTAGCAGATCTCCCTACTCCCATCCCCGCCGCGGAGTCACCTAGTGCAG”, the binding signal is 9420 fluorescence intensity (a.u.).

Turning to “TCTTTCTTTCTCTCTCCATACAGGTGGTCAATGCATTCAACGGAGTCACCTAGTGCAG”, the binding signal is 8570 fluorescence intensity (a.u.).

As for “TATTTTTTTTTCGTTTTTCATCGTAGTTTATTTTACAACACGGAGTCACCTAGTGCAG”, the binding signal is 12400 fluorescence intensity (a.u.).

For “AACTTTATTTTTTTGTTTTTATACAACATTTATCTCTTCGCGGAGTCACCTAGTGCAG”, the binding signal was 9520 fluorescence intensity (a.u.).

In the case of “CTTTTCTTTTTTTTTCATTATTCTAACTTATATCTCGTTTCGGAGTCACCTAGTGCAG”, the binding signal was 9340 fluorescence intensity (a.u.).

In the case of “GCCTGGACGACCTGGTTTCACGCGTTTGTGAGCCACATACCGGAGTCACCTAGTGCAG”, the binding signal is 9060 fluorescence intensity (a.u.).

As for “CCGCCGCCACCGCAAACTCTCTTTCTTCTCTCGCCTGGACCGGAGTCACCTAGTGCAG”, the binding signal is 9650 fluorescence intensity (a.u.).

In the case of “GCCGAAAGCCCACCACACACCGTTCCTCCTCGAGACCAGCCGGAGTCACCTAGTGCAG”, the binding signal was 10100 fluorescence intensity (a.u.).

Turning to “TTTTTTAACTGACATGTGGGGCTATGATTTTTATTATTTTCGGAGTCACCTAGTGCAG”, the binding signal was 9300 fluorescence intensity (a.u.).

Turning to “GATCCATCTAGCTAATTGTTGAATCCATCTAAGCTTAATGCGGAGTCACCTAGTGCAG”, the binding signal is 8310 fluorescence intensity (a.u.).

Regarding “TTACTTGCTTCTATGTATGGCAACTTTTCTACATTGCAATCGGAGTCACCTAGTGCAG”, the binding signal is 9890 fluorescence intensity (a.u.).

For the sequence “CCGCCGCCGCGTCGGGTGTGTGGTAGGGTTTGGGGCGATGCGGAGTCACCTAGTGCAG”, the binding signal is 9950 fluorescence intensity (a.u.).

“CTATAAATTAATTTTTATTCCTCGATACGTTTTGCCTTATCGGAGTCACCTAGTGCAG”: the binding signal was 8220 fluorescence intensity (a.u.).

For the sequence “TTTCATTTCACCAACTAAACAGGCCCATAATGCCGATCATCGGAGTCACCTAGTGCAG”, the binding signal is 8240 fluorescence intensity (a.u.).

Consider “TGCTACTTAGGTTACCGCAATCACTAGACTTTGCCTTTGACGGAGTCACCTAGTGCAG”, for which the binding signal is 9580 fluorescence intensity (a.u.).

Regarding “CCCGTAATCCATCCGGGAGCTCCGTCCCTCGCTTCGGCATCGGAGTCACCTAGTGCAG”, the binding signal is 8220 fluorescence intensity (a.u.).

For “CATCACTAATCACTATATCATTGGGCTAGTTTAGGTTGATCGGAGTCACCTAGTGCAG”, the binding signal is 8600 fluorescence intensity (a.u.).

On to “GTCTGTGTCTGTTACTCTGTCTATTTATCAACTTGAGGGCCGGAGTCACCTAGTGCAG”, for which the binding signal was 8500 fluorescence intensity (a.u.).

For “GAATTGATTCCCTTGTATCCGGGATTTGATTTGATTTTGGCGGAGTCACCTAGTGCAG”, the binding signal is 8430 fluorescence intensity (a.u.).

As to “TTCCCTCGTACCATTTTCGCTGTTGGTCTTTATTGCAGCACGGAGTCACCTAGTGCAG”, the binding signal was 10100 fluorescence intensity (a.u.).

Regarding “TTATAAGTTTTTTTACACACACCTGCTATGTAACTTATATCGGAGTCACCTAGTGCAG”, the binding signal was 8450 fluorescence intensity (a.u.).

On to “GCCTGCACCTGTACGTTAGCGGTTAGCCCTGGTCAAGAGTCGGAGTCACCTAGTGCAG”, for which the binding signal was 8220 fluorescence intensity (a.u.).

For “GTCGTGTTCTTCTTCTTCTTCCATTCAGTCTTGTGCTTGACGGAGTCACCTAGTGCAG”, the binding signal is 12200 fluorescence intensity (a.u.).

Regarding “AGGGCCCAGGTGACGGCCGCCCGCACGCACACGACACGACCGGAGTCACCTAGTGCAG”, the binding signal is 8260 fluorescence intensity (a.u.).

For the sequence “GCTTTTTATACGAGTTCCAGCTCCGCCGCGAGTCCGCGACCGGAGTCACCTAGTGCAG”, the binding signal was 9870 fluorescence intensity (a.u.).

For “TCCTCTCGATCTCCATTCGTTTTTGAGTTCCTCGTTTGCTCGGAGTCACCTAGTGCAG”, the binding signal is 12000 fluorescence intensity (a.u.).

For “TGCTCCTATATATACTCATCTTAACCCCTGCCAAAATCTCCGGAGTCACCTAGTGCAG”, the binding signal is 8510 fluorescence intensity (a.u.).
